According to the supplement of paper PMC4604168 (melanoma cell lines):
The list shows a part of the results. Repeats are few or missing, and single values can be far off.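 Cells were imaged in 1,536-well plates, and nuclei stained with an antibody against cleaved PARP were counted against all DNA-stained nuclei to give the apoptosis fraction. Screening doses were chosen to leave most cells alive, and resting and induced cleaved-PARP levels differ strongly between cell lines.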

Experiments:
Assay in all cases: cleaved PARP positive nuclei fraction relative to DMSO control; melanoma cells; higher = more apoptosis
Details in all cases: library dose: low library concentration; 72 h
501Mel = system: 501Mel
A101D = system: A101D
A2058 = system: A2058
A375 = system: A375
C32 = system: C32
CBRC008 = system: CBRC008 (line from a melanoma biopsy)
CBRC014 = system: CBRC014 (line from a melanoma biopsy)
CBRC016 = system: CBRC016 (line from a melanoma biopsy)
CBRC017 = system: CBRC017 (line from a melanoma biopsy)

Row | Structure (SMILES) | cleaved PARP positive nuclei fraction (501Mel) | cleaved PARP positive nuclei fraction (A101D) | cleaved PARP positive nuclei fraction (A2058) | cleaved PARP positive nuclei fraction (A375) | cleaved PARP positive nuclei fraction (C32) | cleaved PARP positive nuclei fraction (CBRC008) | cleaved PARP positive nuclei fraction (CBRC014) | cleaved PARP positive nuclei fraction (CBRC016) | cleaved PARP positive nuclei fraction (CBRC017)
1 | CCCCCCCCCCCCCCCCCCOP(=O)([O-])OC1CC[N+](C)(C)CC1 [Perifosine] + C#Cc1cccc(Nc2ncnc3cc(OCCOC)c(OCCOC)cc23)c1 [erlotinib] (first compound 0.4 µM, partner dose 0.8 µM) | 65.7% | 190% | 46.2% | 276% | 74.3% | 187% | 94.2% | 111% | 97.5%
2 | Cc1ccc(Nc2nccc(N(C)c3ccc4c(C)n(C)nc4c3)n2)cc1S(N)(=O)=O [Pazopanib] + OCc1c[nH]c2ccccc12 [Indole-3-carbinol] (first compound 0.4 µM, partner dose 0.8 µM) | 164% | 133% | 62% | 179% | 65.9% | 126% | 120% | 26.7% | 104%
3 | O=C(Nc1cc(C(F)(F)F)cc(C(F)(F)F)c1)c1cc(Cl)ccc1O + C[C@]1(O)C[C@@H](c2nc(-c3ccc4ccc(-c5ccccc5)nc4c3)c3c(N)nccn32)C1 [OSI906] (first compound 0.016 µM, partner dose 0.4 µM) | 127% | 67.9% | 104% | 317% | 75.7% | 180% | 116% | 293% | 128%
4 | Cc1cc(Nc2cc(N3CCN(C)CC3)nc(Sc3ccc(NC(=O)C4CC4)cc3)n2)n[nH]1 [Tozasertib] + O=C(/C=C/c1cccnc1)NCCCCC1CCN(C(=O)c2ccccc2)CC1 [FK866] (first compound 0.006 µM, partner dose 0.01 µM) | 39.8% | 155% | 57.5% | 192% | 89.1% | 5380% | 88.8% | 990% | 419%
5 | N#CC[C@H](C1CCCC1)n1cc(-c2ncnc3[nH]ccc23)cn1 [ruxolitinib] + Nc1cccc2c1CN(C1CCC(=O)NC1=O)C2=O [lenalidomide] (first compound 1 µM, partner dose 1 µM) | 183% | 95.8% | 69.6% | 71.2% | 80.2% | 205% | 92.2% | 102% | 173%
6 | N#CC[C@H](C1CCCC1)n1cc(-c2ncnc3[nH]ccc23)cn1 [ruxolitinib] + CN(c1ncccc1CNc1nc(Nc2ccc3c(c2)CC(=O)N3)ncc1C(F)(F)F)S(C)(=O)=O [PF562271] (first compound 1 µM, partner dose 0.08 µM) | 95.9% | 54.5% | 74.9% | 146% | 84.6% | 56.7% | 97.2% | 138% | 107%
7 | Cc1cc(Nc2cc(N3CCN(C)CC3)nc(Sc3ccc(NC(=O)C4CC4)cc3)n2)n[nH]1 [Tozasertib] + O=c1[nH]nc(Sc2ncc([N+](=O)[O-])s2)n1-c1ccc2c(c1)OCCO2 [BI78D3] (first compound 0.006 µM, partner dose 0.2 µM) | 67.5% | 270% | 128% | 134% | 179% | 63.4% | 85.4% | 180% | 96.8%
8 | Cc1ccc(Nc2nccc(N(C)c3ccc4c(C)n(C)nc4c3)n2)cc1S(N)(=O)=O [Pazopanib] + Cc1cc(Nc2cc(N3CCN(C)CC3)nc(/C=C/c3ccccc3)n2)n[nH]1 [ENMD2076] (first compound 0.4 µM, partner dose 0.04 µM) | 77.8% | 64% | 185% | 125% | 84.4% | 70.3% | 106% | 158% | 179%
9 | Cc1cn(-c2cc(NC(=O)c3ccc(C)c(Nc4nccc(-c5cccnc5)n4)c3)cc(C(F)(F)F)c2)cn1 [nilotinib] + CC(=O)O[C@@]12CO[C@@H]1C[C@H](O)[C@@]1(C)C(=O)[C@H](O)C3=C(C)[C@@H](OC(=O)[C@H](O)[C@@H](NC(=O)OC(C)(C)C)c4ccccc4)C[C@@](O)([C@@H](OC(=O)c4ccccc4)[C@H]21)C3(C)C [Docetaxel] (first compound 0.2 µM, partner dose 0.0001 µM) | 156% | 92.5% | 1150% | 3440% | 87.8% | 818% | 123% | 322% | 189%
10 | CC[C@]1(O)C[C@H]2CN(CCc3c([nH]c4ccccc34)[C@@](C(=O)OC)(c3cc4c(cc3OC)N(C=O)[C@H]3[C@@](O)(C(=O)OC)[C@H](OC(C)=O)[C@]5(CC)C=CCN6CC[C@]43[C@@H]65)C2)C1 [vincristine] + Cn1nnc2c(C(N)=O)ncn2c1=O [temozolomide] (first compound 0.0001 µM, partner dose 2 µM) | 285% | 203% | 469% | 196% | 80.6% | 96.4% | 102% | 94.1% | 107%
11 | N#CC[C@H](C1CCCC1)n1cc(-c2ncnc3[nH]ccc23)cn1 [ruxolitinib] + Nc1ccn([C@@H]2O[C@H](CO)[C@@H](O)C2(F)F)c(=O)n1 [gemcitabine] (first compound 1 µM, partner dose 0.0004 µM) | 99.4% | 121% | 50.7% | 121% | 74.7% | 126% | 141% | 272% | 319%
